Laboratory results published in PMC7042299.
Numbering of substitutions follows the chain as printed. These are yes or no findings as the source states them, for the method shown. In cells and extracts the contact can be indirect. Some entries that bind do so weakly or less than the wild type. Where a sequence is shown, tags or fusion partners need not be part of it.

Tests used:
[1] = target: T1, T7-DHX34 p.Arg897Cys (human) (UniProt Q14147); experiment: co-IP; HEK293T cells co-transfected with T7-DHX34 (wild type or variant) and FLAG-UPF1; anti-T7 immunoprecipitates probed for UPF1
T1 sequence: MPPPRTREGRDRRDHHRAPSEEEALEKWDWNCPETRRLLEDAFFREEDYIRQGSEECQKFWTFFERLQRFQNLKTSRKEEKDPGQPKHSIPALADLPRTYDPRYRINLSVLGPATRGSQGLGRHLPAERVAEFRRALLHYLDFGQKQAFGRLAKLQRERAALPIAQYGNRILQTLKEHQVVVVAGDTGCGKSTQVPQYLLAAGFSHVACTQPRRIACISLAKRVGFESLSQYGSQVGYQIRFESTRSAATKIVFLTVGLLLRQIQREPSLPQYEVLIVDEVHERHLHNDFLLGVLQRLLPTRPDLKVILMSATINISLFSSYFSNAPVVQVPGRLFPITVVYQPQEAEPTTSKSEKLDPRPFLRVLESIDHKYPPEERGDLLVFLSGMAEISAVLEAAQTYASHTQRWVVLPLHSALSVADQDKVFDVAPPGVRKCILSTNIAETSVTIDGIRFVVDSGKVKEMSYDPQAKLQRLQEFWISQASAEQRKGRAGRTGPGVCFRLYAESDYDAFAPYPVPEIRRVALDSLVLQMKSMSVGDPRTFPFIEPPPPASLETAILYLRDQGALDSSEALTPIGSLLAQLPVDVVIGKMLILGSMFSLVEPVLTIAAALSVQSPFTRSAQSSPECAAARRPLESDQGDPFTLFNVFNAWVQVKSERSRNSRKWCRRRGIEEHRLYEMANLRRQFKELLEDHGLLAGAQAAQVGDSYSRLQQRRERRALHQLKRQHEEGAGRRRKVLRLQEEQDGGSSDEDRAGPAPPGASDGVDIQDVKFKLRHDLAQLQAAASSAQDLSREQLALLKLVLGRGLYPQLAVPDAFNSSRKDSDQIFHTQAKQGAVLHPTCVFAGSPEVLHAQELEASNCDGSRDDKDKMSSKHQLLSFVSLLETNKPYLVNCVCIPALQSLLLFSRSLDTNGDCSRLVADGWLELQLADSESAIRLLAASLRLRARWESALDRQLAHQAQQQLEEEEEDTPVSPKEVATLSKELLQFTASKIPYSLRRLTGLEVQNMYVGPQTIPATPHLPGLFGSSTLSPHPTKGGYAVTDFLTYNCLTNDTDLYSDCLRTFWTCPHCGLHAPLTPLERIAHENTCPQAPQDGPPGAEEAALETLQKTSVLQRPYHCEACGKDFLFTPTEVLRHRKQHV

[2] = target: T2, T7-DHX34 p.Asp638Asn (human) (UniProt Q14147); experiment: as above
T2 sequence: T1 sequence with D638N, C897R

B1: FLAG-UPF1 (pcIneo-FLAG-UPF1) (protein, UniProt Q92900 1-1129)
chain: MSVEAYGPSSQTLTFLDTEEAELLGADTQGSEFEFTDFTLPSQTQTPPGGPGGPGGGGAGGPGGAGAGAAAGQLDAQVGPEGILQNGAVDDSVAKTSQLLAELNFEEDEEDTYYTKDLPIHACSYCGIHDPACVVYCNTSKKWFCNGRGNTSGSHIVNHLVRAKCKEVTLHKDGPLGETVLECYNCGCRNVFLLGFIPAKADSVVVLLCRQPCASQSSLKDINWDSSQWQPLIQDRCFLSWLVKIPSEQEQLRARQITAQQINKLEELWKENPSATLEDLEKPGVDEEPQHVLLRYEDAYQYQNIFGPLVKLEADYDKKLKESQTQDNITVRWDLGLNKKRIAYFTLPKTDSGNEDLVIIWLRDMRLMQGDEICLRYKGDLAPLWKGIGHVIKVPDNYGDEIAIELRSSVGAPVEVTHNFQVDFVWKSTSFDRMQSALKTFAVDETSVSGYIYHKLLGHEVEDVIIKCQLPKRFTAQGLPDLNHSQVYAVKTVLQRPLSLIQGPPGTGKTVTSATIVYHLARQGNGPVLVCAPSNIAVDQLTEKIHQTGLKVVRLCAKSREAIDSPVSFLALHNQIRNMDSMPELQKLQQLKDETGELSSADEKRYRALKRTAERELLMNADVICCTCVGAGDPRLAKMQFRSILIDESTQATEPECMVPVVLGAKQLILVGDHCQLGPVVMCKKAAKAGLSQSLFERLVVLGIRPIRLQVQYRMHPALSAFPSNIFYEGSLQNGVTAADRVKKGFDFQWPQPDKPMFFYVTQGQEEIASSGTSYLNRTEAANVEKITTKLLKAGAKPDQIGIITPYEGQRSYLVQYMQFSGSLHTKLYQEVEIASVDAFQGREKDFIILSCVRANEHQGIGFLNDPRRLNVALTRARYGVIIVGNPKALSKQPLWNHLLNYYKEQKVLVEGPLNNLRESLMQFSKPRKLVNTINPGARFMTTAMYDAREAIIPGSVYDRSSQGRPSSMYFQTHDQIGMISAGPSHVAAMNIPIPFNLVMPPMPPPGYFGQANGPAAGRGTPKGKTGRGGRQKNRFGLPGPSQTNLPNSQASQDVASQPFSQGALTQGYISMSQPSQMSQPGLSQPELSQDSYLGDEFKSQIDVALSQDSTYQGERAYQHGGVTGLSQY
- binding [1]: binds
- binding [2]: binds
